One substance from publication PMC6867699 can be followed below.

Amino acid sequences for entries named in this document (tags omitted).
UniProt P40763: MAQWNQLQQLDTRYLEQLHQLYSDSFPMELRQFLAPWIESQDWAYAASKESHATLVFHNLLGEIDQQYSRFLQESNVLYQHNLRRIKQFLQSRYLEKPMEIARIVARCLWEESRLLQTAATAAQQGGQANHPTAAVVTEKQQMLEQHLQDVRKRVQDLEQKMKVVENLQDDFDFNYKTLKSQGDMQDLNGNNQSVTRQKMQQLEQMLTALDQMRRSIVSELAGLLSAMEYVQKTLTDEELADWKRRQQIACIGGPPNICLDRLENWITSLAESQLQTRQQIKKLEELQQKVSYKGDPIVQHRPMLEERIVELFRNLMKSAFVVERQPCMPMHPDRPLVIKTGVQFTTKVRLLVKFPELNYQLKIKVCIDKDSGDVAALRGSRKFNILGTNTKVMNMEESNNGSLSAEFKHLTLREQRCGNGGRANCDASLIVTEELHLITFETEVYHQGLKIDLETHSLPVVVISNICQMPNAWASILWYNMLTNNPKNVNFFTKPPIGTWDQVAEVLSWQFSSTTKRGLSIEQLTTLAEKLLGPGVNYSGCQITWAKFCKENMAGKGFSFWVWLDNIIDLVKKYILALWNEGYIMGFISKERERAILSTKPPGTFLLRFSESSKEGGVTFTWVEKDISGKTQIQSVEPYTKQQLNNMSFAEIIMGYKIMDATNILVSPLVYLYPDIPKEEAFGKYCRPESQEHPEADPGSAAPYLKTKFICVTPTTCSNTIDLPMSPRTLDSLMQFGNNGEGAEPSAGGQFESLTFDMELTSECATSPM

These are yes or no findings as the source states them, for the method shown. In cells and extracts the contact can be indirect. Here binding means that the protein was enriched with, or labelled near, the bait; the list need not be complete.

The target in this assay is Human epidermal growth factor receptor 2 (HER2) (human (endogenous in SKBR3)) (UniProt P04626). The assay can be described thus: affinity purification with mass spectrometry; RIME: anti-HER2 (sc-284) immunoprecipitation from nuclear (Nuclei Pure Prep kit) or chromatin (Subcellular Extraction kit) fractions of SILAC-labelled SKBR3 cells treated with vehicle or EGF for 3 hours, labels mixed; IgG control; on-bead trypsin digestion, LC-MS/MS.

As to “signal transducer and activator of transcription 3 (STAT3) (from UniProt P40763 1-770)”, the binding result was “binds”.
